System: alpha 2 receptor
Conditions: applied IP

SMILES	concentration at which therapeutic effects begin
Brc1c(NC2=NCCN2)ccc2nccnc12 [Brimonidine, brimonidine]	10 micrograms/kg
Clc1cccc(Cl)c1N=C1NCCN1 [Clonidine, clonidine]	about 100 micrograms/kg
